Results as given in the supplement of paper PMC12823440, “Inhibitors supercharge kinase turnover through native proteolytic circuits” (Nature, 2025).
Counter-ions that a name gives are not always drawn. Some of the results follow. Hit calls seldom repeat between salt and free forms of one compound.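 Kinases were expressed as nanoluciferase fusions in K562 cells and luminescence was read every 4 h between 2 and 18 h as percent of control, DMSO set to 100% and a positive control to 0%. A time point counts as decreased when the signal drops significantly (2 sigma). The hit call is the authors' own, does not follow from the count of time points alone, and its rule is not shown.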

Protein sequences, listed by entry. Tags and fused reporters are not part of them. Lines headed by an entry give the natural chain unless they say otherwise; changes in a name come on top.
UniProt P42680: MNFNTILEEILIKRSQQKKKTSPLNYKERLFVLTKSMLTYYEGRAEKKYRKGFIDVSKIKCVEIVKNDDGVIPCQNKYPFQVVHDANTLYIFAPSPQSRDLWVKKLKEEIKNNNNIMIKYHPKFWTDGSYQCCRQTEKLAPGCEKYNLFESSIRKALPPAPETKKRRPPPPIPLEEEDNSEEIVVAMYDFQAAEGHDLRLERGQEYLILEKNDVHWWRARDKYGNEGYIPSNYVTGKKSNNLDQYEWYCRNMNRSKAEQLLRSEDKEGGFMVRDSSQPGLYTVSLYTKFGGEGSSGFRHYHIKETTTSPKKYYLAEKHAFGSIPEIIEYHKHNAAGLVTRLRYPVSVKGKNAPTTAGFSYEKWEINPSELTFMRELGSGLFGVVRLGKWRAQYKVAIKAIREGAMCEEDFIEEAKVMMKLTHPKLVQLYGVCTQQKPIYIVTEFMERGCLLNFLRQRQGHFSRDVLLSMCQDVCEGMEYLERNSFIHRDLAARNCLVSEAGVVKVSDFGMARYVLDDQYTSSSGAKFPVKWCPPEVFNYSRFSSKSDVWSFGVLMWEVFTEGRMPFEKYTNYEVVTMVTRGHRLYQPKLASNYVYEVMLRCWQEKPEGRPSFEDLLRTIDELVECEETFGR

Biological target: SYK (UniProt P43405)
Assay: number of time points (of 5) at which kinase-Nluc abundance scored as decreased, DMSO-normalised (count); higher = more persistent destabilization
Settings: K562; 2-18 h

Compound | number of time points
CC(C)CN(CC(=O)N1CCN(CC(OCc2ccc3ccccc3c2)c2ccc(Cl)cc2Cl)CC1)CC(C)C (stereo unspecified) [LYN-1604 (dihydrochloride)] (2.5 µM) | 0
CO[C@H]1C[C@@H]2CC[C@@H](C)[C@@](O)(O2)C(=O)C(=O)N2CCCC[C@H]2C(=O)O[C@H]([C@H](C)C[C@@H]2CC[C@@H](O)[C@H](OC)C2)CC(=O)[C@H](C)/C=C(\C)[C@@H](O)[C@@H](OC)C(=O)[C@H](C)C[C@H](C)/C=C/C=C/C=C/1C [Rapamycin] (10 µM) | 0
Cc1ccc(Nc2cc(-c3cccc(N4C(=O)c5ccccc5C4=O)c3)ncn2)cc1NS(C)(=O)=O (10 µM) | 0
Nc1cc(Nc2ccc(S(N)(=O)=O)cc2)ncn1 (10 µM) | 0
CCOc1cc(C(=O)N2CCC(N3CCN(C)CC3)CC2)ccc1Nc1ncc2c(n1)N(C1CCCC1)c1ccccc1C(=O)N2C (10 µM) | 0
COCCOc1ccc(-c2cn(-c3ccccc3)c3nc[nH]c(=O)c23)cc1 (10 µM) | 0
Cc1cc(O)c(C(C)C)cc1N=O [Poloxime] (10 µM) | 0

Biological target: TEC (UniProt P42680)
Assay: as above
Settings: K562; 2-18 h

Compound | number of time points
COc1ccc(Cn2cc(C(=O)N=Nc3c(O)[nH]c4c(C)cccc34)nn2)cc1 [MARK4 inhibitor 1] (10 µM) | 0
COc1cc([N+](=O)[O-])ccc1S(=O)(=O)N1C[C@@H](CN2CCN(c3ccccn3)CC2)[C@H](c2cccc(F)c2)C1 (relative stereo) (10 µM) | 0
Cc1cc(Nc2nc(N[C@@H](C)c3ccc(F)cc3)c(C#N)cc2F)n[nH]1 (10 µM) | 0
Cc1ccc(S(=O)(=O)/C=C/C#N)cc1 (10 µM) | 0
Cc1c(CN2CCN(S(C)(=O)=O)CC2)sc2c(N3CCOCC3)nc(-c3cnc(N)nc3)nc12 (2.5 µM) | 0
COc1ccc(-c2ccc3c(N4CCOC[C@@H]4C)nc(N4CCOC[C@@H]4C)nc3n2)cc1CO (2.5 µM) | 0
CCN(CC)S(=O)(=O)c1ccc(OC)c(N2CCN(C(=O)c3ccc(F)cc3C(F)(F)F)CC2)c1 (10 µM) | 0
CC1CN(C(=O)Nc2ccc(Cl)c(Cl)c2)C(=Nc2ccc(F)cc2)S1 (stereo unspecified) (10 µM) | 0
COCCO[C@@H]1[C@H](O)[C@@H](CO)O[C@H]1n1cnc2c(=O)[nH]c(N)nc21 [2′-O-(2-Methoxyethyl)guanosine] (10 µM) | 0
COc1cc(F)c(F)c(Nc2ccc(I)cc2F)c1NS(=O)(=O)C1(C[C@H](O)CO)CC1 [Refametinib] (10 µM) | 0
CC(C)=CC[C@H](O)C1=CC(=O)c2c(O)ccc(O)c2C1=O [(-)-Alkannin] (2.5 µM) | 0
C[C@@]1(O)CCC[C@H]1n1c(=O)c(C(F)F)cc2cnc(NC3CCN(S(C)(=O)=O)CC3)nc21 (2.5 µM) | 0
CS(=O)(=O)c1ccc(-c2noc(C(F)(F)F)c2-c2ccccc2)cc1 (10 µM) | 0
COc1ccc2[nH]cc(/C=C3\C(=O)Nc4ccc(NC(=O)CCN5CCCCC5)cc43)c2c1 (2.5 µM) | 0
O=C(Nc1ccc(F)cc1F)[C@H](NC(=S)Nc1cc(C(F)(F)F)cc(C(F)(F)F)c1)c1ccccc1 (2.5 µM) | 0
CC(C)CN[C@H]1CS(=O)(=O)C[C@@H]1S(=O)(=O)c1ccc(Cl)cc1 (10 µM) | 0
COc1ccc(C2CC(c3ccccc3)=NN2c2ccc(S(N)(=O)=O)cc2)cc1 (stereo unspecified) (10 µM) | 0
CC/C=C\C/C=C\C/C=C\CCCCCCCC(=O)O [α-Linolenic acid] (10 µM) | 0
O=C(Nc1nc2ccccc2[nH]1)c1cccc(-n2cccc2)c1 (10 µM) | 0
COc1ncc(-c2nc(N3CCOCC3)nc3c(CN4CCC(C(C)(C)O)CC4)cc(F)cc23)cc1NS(C)(=O)=O [Linperlisib] (10 µM) | 0
COc1ccc([C@H]2c3[nH]c4ccc(Cl)cc4c3CCN2C(=O)Oc2ccc(Cl)cc2)cc1 (2.5 µM) | 0
COc1c(NC(=O)C(=O)c2ccc(OCCN3CCOCC3)c3ccccc23)cc(C(C)(C)C)cc1NS(C)(=O)=O (2.5 µM) | 0
COc1ccc([C@@H]2CC(=O)c3c(O)cc(O)cc3O2)cc1O [Hesperetin] (10 µM) | 0
N#Cc1cccc(-c2c[nH]c3ncnc(N4CCOCC4)c23)c1 (10 µM) | 0

Part of the list above, with tabs.
Compound	number of time points
COc1ccc2[nH]cc(/C=C3\C(=O)Nc4ccc(NC(=O)CCN5CCCCC5)cc43)c2c1 (2.5 µM)	0
O=C(Nc1ccc(F)cc1F)[C@H](NC(=S)Nc1cc(C(F)(F)F)cc(C(F)(F)F)c1)c1ccccc1 (2.5 µM)	0
CC(C)CN[C@H]1CS(=O)(=O)C[C@@H]1S(=O)(=O)c1ccc(Cl)cc1 (10 µM)	0
COc1ccc(C2CC(c3ccccc3)=NN2c2ccc(S(N)(=O)=O)cc2)cc1 (stereo unspecified) (10 µM)	0
CC/C=C\C/C=C\C/C=C\CCCCCCCC(=O)O [α-Linolenic acid] (10 µM)	0
O=C(Nc1nc2ccccc2[nH]1)c1cccc(-n2cccc2)c1 (10 µM)	0
COc1ncc(-c2nc(N3CCOCC3)nc3c(CN4CCC(C(C)(C)O)CC4)cc(F)cc23)cc1NS(C)(=O)=O [Linperlisib] (10 µM)	0
COc1ccc([C@H]2c3[nH]c4ccc(Cl)cc4c3CCN2C(=O)Oc2ccc(Cl)cc2)cc1 (2.5 µM)	0
